This experiment addresses NF-κB RelA (p65), endogenous (human (endogenous in OSCC cells CAL-27 or SCC-9)) (UniProt Q04206). The experiment in a line: co-IP; endogenous proteins; clarified supernatants incubated with antibody (LCN2, RPS3 or NF-κB/P65) for 2 h, then protein A/G magnetic beads overnight; washed three times with NETN buffer; western blot; RPS3-IP also done in LCN2 knock-down and LCN2-overexpressing stable cell lines.

Protein sequences, listed by entry. Tags and fused reporters are not part of them. Residues count along the entry.
UniProt Q04206: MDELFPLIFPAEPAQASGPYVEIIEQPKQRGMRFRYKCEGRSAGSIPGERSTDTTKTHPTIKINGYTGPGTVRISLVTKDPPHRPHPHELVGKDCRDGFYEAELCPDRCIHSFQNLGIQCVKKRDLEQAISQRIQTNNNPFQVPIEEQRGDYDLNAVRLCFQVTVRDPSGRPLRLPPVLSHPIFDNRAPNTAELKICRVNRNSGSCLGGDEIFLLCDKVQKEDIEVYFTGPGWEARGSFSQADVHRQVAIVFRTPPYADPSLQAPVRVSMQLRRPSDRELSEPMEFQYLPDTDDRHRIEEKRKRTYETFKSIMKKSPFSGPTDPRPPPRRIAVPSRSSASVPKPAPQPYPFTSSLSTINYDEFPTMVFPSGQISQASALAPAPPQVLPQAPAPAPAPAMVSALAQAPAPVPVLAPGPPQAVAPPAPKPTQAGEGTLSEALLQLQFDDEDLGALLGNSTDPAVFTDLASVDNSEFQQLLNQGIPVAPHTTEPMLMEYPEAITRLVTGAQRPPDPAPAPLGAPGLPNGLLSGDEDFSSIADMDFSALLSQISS
UniProt P80188, residues 21-198: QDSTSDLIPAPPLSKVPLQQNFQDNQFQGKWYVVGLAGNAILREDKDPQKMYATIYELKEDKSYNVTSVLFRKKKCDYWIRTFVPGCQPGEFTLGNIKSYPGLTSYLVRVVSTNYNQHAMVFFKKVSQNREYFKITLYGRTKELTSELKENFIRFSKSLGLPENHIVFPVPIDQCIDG

These are yes or no findings as the source states them, for the method shown. In cells and extracts the contact can be indirect.

“lipocalin 2 (LCN2), endogenous (from UniProt P80188 21-198)”: the binding result was “no binding”.
